Drawing on patent US9408921B2 (Brandeis University, priority 2009, dated 2016), this text covers conjugation yield for one substance.

[ ]: non-standard residue; d: D form. The star is where a group is joined. Paclitaxel(2'-O-succinyl) = CC(=O)O[C@H]1C(=O)[C@@]2(C)[C@H]([C@H](OC(=O)c3ccccc3)[C@]3(O)C[C@H](OC(=O)[C@H](OC(=O)CCC(=O)*)[C@@H](NC(=O)c4ccccc4)c4ccccc4)C(C)=C1C3(C)C)[C@]1(OC(C)=O)CO[C@@H]1C[C@@H]2O; Acetyl(2-naphthyl) = O=C(Cc1ccc2ccccc2c1)*; pY = N[C@@H](Cc1ccc(OP(=O)(O)O)cc1)C(=O)O

This series in a line: peptide synthesis. The conditions noted are these: conjugation step, overall.

The substance “{Acetyl(2-naphthyl)}-FFK(Paclitaxel(2'-O-succinyl))[pY]-OH (SMILES CC(=O)O[C@H]1C(=O)[C@@]2(C)[C@H]([C@H](OC(=O)c3ccccc3)[C@]3(O)C[C@H](OC(=O)[C@H](OC(=O)CCC(=O)NCCCC[C@H](NC(=O)[C@H](Cc4ccccc4)NC(=O)[C@H](Cc4ccccc4)NC(=O)Cc4ccc5ccccc5c4)C(=O)N[C@@H](Cc4ccc(OP(=O)(O)O)cc4)C(=O)O)[C@@H](NC(=O)c4ccccc4)c4ccccc4)C(C)=C1C3(C)C)[C@]1(OC(C)=O)CO[C@@H]1C[C@@H]2O)” yielded a conjugation yield of 37.1%.
